Paper PMC11511861
No constants are given. Whether binding was seen depends on the method and setting. In cells and extracts the contact can be indirect. Some results given as binding are weak or reduced against the parent protein; the word gives no strength.

Protein sequences, listed by entry. Tags and fused reporters are not part of them. Residues count along the entry.
UniProt P46937: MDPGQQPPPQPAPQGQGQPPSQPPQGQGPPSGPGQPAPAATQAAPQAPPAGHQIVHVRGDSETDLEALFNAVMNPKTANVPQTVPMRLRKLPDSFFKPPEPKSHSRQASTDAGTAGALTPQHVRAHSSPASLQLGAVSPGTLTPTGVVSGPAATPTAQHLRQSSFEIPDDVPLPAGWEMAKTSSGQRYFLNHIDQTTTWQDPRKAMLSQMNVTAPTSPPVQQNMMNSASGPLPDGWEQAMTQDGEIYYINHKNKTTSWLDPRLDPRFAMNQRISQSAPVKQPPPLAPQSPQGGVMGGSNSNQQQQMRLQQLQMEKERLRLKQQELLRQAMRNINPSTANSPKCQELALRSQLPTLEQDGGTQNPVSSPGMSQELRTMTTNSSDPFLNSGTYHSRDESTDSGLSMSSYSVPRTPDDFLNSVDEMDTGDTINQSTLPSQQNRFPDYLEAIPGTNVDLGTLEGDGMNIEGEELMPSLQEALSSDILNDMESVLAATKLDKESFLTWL
UniProt P02545, residues 1-646: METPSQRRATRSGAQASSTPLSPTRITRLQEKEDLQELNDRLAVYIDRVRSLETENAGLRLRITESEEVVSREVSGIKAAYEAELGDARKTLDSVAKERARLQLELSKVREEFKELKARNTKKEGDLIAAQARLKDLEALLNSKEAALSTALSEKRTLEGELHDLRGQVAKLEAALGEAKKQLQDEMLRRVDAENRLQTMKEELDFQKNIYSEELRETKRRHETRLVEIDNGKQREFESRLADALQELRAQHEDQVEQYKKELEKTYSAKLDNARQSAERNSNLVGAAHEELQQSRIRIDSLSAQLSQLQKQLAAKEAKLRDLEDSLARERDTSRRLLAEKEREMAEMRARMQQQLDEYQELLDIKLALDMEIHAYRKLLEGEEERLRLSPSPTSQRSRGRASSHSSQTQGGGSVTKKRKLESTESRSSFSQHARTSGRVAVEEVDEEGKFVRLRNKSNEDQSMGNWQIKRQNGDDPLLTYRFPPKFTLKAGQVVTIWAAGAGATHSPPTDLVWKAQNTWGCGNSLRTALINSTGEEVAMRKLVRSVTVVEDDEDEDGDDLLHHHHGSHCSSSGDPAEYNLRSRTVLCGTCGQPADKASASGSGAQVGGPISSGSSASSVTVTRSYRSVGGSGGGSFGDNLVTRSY
UniProt P25490: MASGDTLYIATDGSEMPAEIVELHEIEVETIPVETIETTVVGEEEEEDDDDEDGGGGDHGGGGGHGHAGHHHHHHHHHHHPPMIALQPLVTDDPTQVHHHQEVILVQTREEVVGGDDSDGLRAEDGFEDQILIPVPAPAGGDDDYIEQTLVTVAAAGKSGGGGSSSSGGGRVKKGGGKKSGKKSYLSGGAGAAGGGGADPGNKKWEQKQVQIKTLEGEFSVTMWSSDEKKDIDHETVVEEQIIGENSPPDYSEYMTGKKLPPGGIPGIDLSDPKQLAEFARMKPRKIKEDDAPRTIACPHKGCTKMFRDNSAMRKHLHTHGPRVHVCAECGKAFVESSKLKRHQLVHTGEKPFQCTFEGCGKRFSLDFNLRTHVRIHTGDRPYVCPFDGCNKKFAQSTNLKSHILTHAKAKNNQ
UniProt P01106: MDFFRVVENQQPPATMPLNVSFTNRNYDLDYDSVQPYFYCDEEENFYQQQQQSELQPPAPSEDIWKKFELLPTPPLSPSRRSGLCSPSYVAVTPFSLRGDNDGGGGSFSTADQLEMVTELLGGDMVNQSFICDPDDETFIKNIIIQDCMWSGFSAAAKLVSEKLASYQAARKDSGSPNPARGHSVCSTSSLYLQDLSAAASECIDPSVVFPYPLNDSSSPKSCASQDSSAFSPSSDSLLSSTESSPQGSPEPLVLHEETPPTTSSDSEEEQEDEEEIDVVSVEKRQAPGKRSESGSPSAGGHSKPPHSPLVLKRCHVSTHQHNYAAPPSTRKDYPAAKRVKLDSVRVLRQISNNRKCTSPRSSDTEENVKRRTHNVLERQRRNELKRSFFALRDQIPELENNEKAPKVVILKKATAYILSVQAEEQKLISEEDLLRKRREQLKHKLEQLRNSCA

Assays:
[1] = target: YAP (human (endogenous in H1299)) (UniProt P46937); test: proximity ligation; Duolink in situ PLA kit on fixed H1299 cells; endogenous proteins
[2] = target: YAP (human (endogenous in H1299)) (UniProt P46937); test: co-IP; H1299 protein lysates immunoprecipitated with anti-IgG, anti-YAP, anti-pMYC or anti-YY1 antibodies, then Western blot; 5-10% of total lysate as input; endogenous proteins

Row | binding [1] | binding [2] | Substance
1 | binds | binds | Lamin A/C (from UniProt P02545 1-646)
2 | binds | binds | YY1 (Yin Yang 1) transcription factor (from UniProt P25490 1-414)
3 | binds | binds | pMYC (from UniProt P01106 1-454)
